Test results as given in patent US9018237B2, “Methods for improved wound closure employing olivamine and endothelial cells” (priority 2009, dated 2015).
At least one compound was matched to its structure with a doubt left.

Tested on: human microvascular endothelial cells
Test: in vitro model of wound healing (cell migration), time for 50% of wound to heal
Type: cell-based
Details: compared to untreated or to the additive effect of the compounds
From the text: The time for wounds to heal by 50% under the various treatment conditions was quantified.

For `C/C=C1/[C@H](O[C@@H]2O[C@H](CO)[C@@H](O)[C@H](O)[C@H]2O)OC=C(C(=O)OC)[C@H]1CC(=O)OCCc1ccc(O)c(O)c1` [Oleuropein], the “effect on time and extent of wound healing (in words)” value was “does not improve wound healing”.
